Results are given in words; binding and its absence hold for the method and conditions named. Binding seen in cells or lysates may run through a third protein. Some entries that bind do so weakly or less than the wild type.
Target: 3XFLAG tagged-Nup358 (Drosophila Nup358/RanBP2, transcript variant B) (Drosophila)
Assay: co-IP; FLAG-Nup358 as bait: mouse monoclonal FLAG antibody on Protein A/G magnetic beads (Pierce MS-Compatible Magnetic IP Kit), 1 mg total protein of S2 cell lysate, 4°C; immunoblot for CrPV-1A

The chains behind the UniProt entries cited, without tags or fusion partners. Residues count along the entry.
UniProt Q9IJX4, residues 1-166: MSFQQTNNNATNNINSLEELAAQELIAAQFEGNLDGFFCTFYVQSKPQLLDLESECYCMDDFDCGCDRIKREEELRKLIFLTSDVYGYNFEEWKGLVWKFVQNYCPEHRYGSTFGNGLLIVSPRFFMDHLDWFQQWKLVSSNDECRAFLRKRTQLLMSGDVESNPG

Question: With “Cricket paralysis virus 1A protein (CrPV-1A), wild type (from UniProt Q9IJX4 1-166)” as the substance, how does the binding read?
Answer: binds

Source: paper PMC9746944
